Values from PubChem BioAssay AID504808 (Drosophila RNAi Screening Center, 2011).
Test: 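Chromatin factors that keep E2F targets switched off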 (primary screen). Cells: Drosophila S2 cells. Reagent: long dsRNA against Drosophila genes. Measurement: 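Dual luciferase plate measurements; E2F-specific signal taken as firefly over Renilla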. Reading the numbers: E2F firefly: higher = more E2F reporter activity; Renilla normaliser: higher = more normaliser reporter signal. Hit rule: 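a knock-down counted as active when the firefly/Renilla E2F signal rose above 50%, a threshold chosen arbitrarily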.
In all, the deposit lists about 21,000 reagents; shown is an unselected part of those with a known target gene and a result. In the full data, 18 (0.084%) are marked active. 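Raw counts without plate normalisation, one of two replicates; the ratio scores behind the calls were not deposited.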 Entries without a mark were called inactive. Reagents against one gene are numbered here. Names joined by + are all predicted targets of the reagent. Reagent sequences are not shown. Not stated in the record: the amount of reagent, the time to read-out.

no.	predicted target	reagent no.	E2F firefly, rep 1	Renilla normaliser, rep 1
1	CG17207	1	1.39e5	6439
2	kkv	1	70588	3496
3	Icmt	1	1.20e5	7662
4	CG12708	1	2.37e5	7331
5	Brms1	1	99973	5981
6	140up	1	78194	3622
7	p38a	1	1.01e5	5042
8	verm	1	76565	3817
9	Mvd	1	8032	828
10	mmm	1	93495	3920
11	Egm	1	2956	198
12	Ube4A	1	72224	3435
13	CG15169	1	96855	3937
14	SdhBL	1	1.43e5	6791
15	CG32651	1	82121	2813
16	CG18480	1	82885	3503
17	Hsp23	1	67421	3409
18	Hsc70-5	1	2496	217
19	MTF-1	1	1.36e5	4520
20	MTF-1	2	1.37e5	7672
21	CR12798	1	1.49e5	6313
22	CG18418	1	75957	3933
23	Cyt-c1	1	80571	3820
24	CG9396	1	1.42e5	5907
25	Nup214	1	96697	3627
26	CG34159	1	1.54e5	4610
27	CG15160	1	87342	3862
28	PIG-A	1	71072	3488
29	CG15044	1	2.40e5	6332
30	Ocrl	1	1854	1004
31	CG4622	1	74528	3783
32	CG15861	1	1.33e5	5513
33	CG31345	1	1.19e5	5484
34	CG31345	2	1.28e5	6013
35	P5CDh1	1	78816	3838
36	phyl	1	94153	3861
37	CG5644	1	98647	3826
38	plx	1	1.28e5	6185
39	plx	2	1.43e5	7014
40	eRF1	1	74436	4283
41	CG18190	1	1.45e5	4752
42	CG8031	1	75580	3098
43	CG31910 + snoRNA:Me28S-G2743 (retired record)	1	1.30e5	5908
44	TTLL6B	1	85783	6712
45	Dek	1	58993	3406
46	GstE12	1	1.03e5	3825
47	CG18568	1	3237	205
48	CG5217	1	1.32e5	7204

Ordered by “E2F firefly, rep 1” (ascending): some entries from above
predicted target	reagent no.	E2F firefly, rep 1	Renilla normaliser, rep 1
Dek	1	58993	3406
eRF1	1	74436	4283
CG8031	1	75580	3098
TTLL6B	1	85783	6712
CG5644	1	98647	3826
GstE12	1	1.03e5	3825
plx	1	1.28e5	6185
CG31910 + snoRNA:Me28S-G2743 (retired record)	1	1.30e5	5908
plx	2	1.43e5	7014
CG18190	1	1.45e5	4752

The results go on:
no.	predicted target	reagent no.	E2F firefly, rep 1	Renilla normaliser, rep 1
49	Vamp7	1	1.38e5	4286
50	AP-2alpha	1	1.70e5	5753
51	CG3556	1	1833	808
52	CAH5	1	1.20e5	6260
53	CG5280	1	1.01e5	4447
54	CG34323	1	80302	2886
55	CG14232	1	1.74e5	5606
56	Ugt307A1	1	1.59e5	5519
57	CG32700	1	1.20e5	5180
58	CG32700	2	1.24e5	5941
59	CG9166	1	95070	4773
60	Lst	1	1.40e5	4866
61	CG11170	1	71799	3610
62	glob2	1	1.30e5	5962
63	CG1941	1	1.49e5	4486
64	CG32262	1	74894	4139
65	tipE	1	79151	3917
66	CG7407	1	73010	3450
67	CG42788	1	1.17e5	6521
68	CG42788	2	1.28e5	7131
69	CG42788	3	1.10e5	5720
70	CG42537	1	1.47e5	7322
71	CG13033	1	1.68e5	8688
72	dah	1	7780	776
73	CG7785	1	1.35e5	7489
74	CG3625	1	1.58e5	5285
75	CG3625	2	89248	4189
76	Past1	1	1.47e5	6256
77	Cpr76Ba	1	1.23e5	6524
78	CG16700	1	1.53e5	6493
